Test results: the supplement of paper PMC5949888
Most values lie at the floor of the assay. Slopes are relative: functional sequences can read slightly below zero.

What follows are substances tested on Saccharomyces cerevisiae PS128 hsf1 delta, HSF1(1-493) fusion (assay: growth estimate (transactivation domain function in HSF1 fusion, heat-shock survival) (a.u. (slope of normalised read count over time)); higher = stronger growth at 37°C, i.e. more transactivation activity). Conditions: library: random library.

Substance	growth estimate
VHTRPSVNVSPCLYVADGFA	< -0.25
GWQMGNIVLEH	< -0.25
GCTGGSGGGAIIV	< -0.25
AGFLGNMALSIDTSLPRGKP	< -0.25
MCKYTSLHRALAVTGMVRKL	< -0.25
YAESRSAGSP	< -0.25
KAEFIAGILRLHISESRAAG	< -0.253
WCGGATVHG	< -0.25
TMRLIG	< -0.25
GCQVPNRLFCLLRGSDSY	< -0.25
DHPGRKLKCVGFRTIRYIPA	< -0.25
TAVRHNMDCSWM	< -0.25
GEREIQVEHRFYSFLKGKT	< -0.25
DSTSMSR	< -0.25
RSGVRG	< -0.25
RTCEVSAWTTRRRSDSSSSF	< -0.25
HER	< -0.25
PIF	< -0.25
RCG	< -0.25
LGSRDRLAQRVGVIVIPRND	< -0.25
PSETNDRYYISN	< -0.25
IHFVRRHQGHLRRGHVSFII	-0.23
RVGAS	< -0.25
WVVSLSTPA	< -0.25
IFSS	< -0.25
PTAGWTGSRGHPCLRKEKT	< -0.25

Substance	growth estimate
YVSADVLTKVLQRRVSVHCT	< -0.25
SHIARRPVAKSKIPGSETSE	< -0.25
CNIGN	< -0.25
NVSSRGD	< -0.25
AVINH	< -0.25
MIVLPWFITQASPTSQR	< -0.25
PTPDVKSVICLHLRGYTKTR	< -0.25
RYGGCTLDCVTAL	< -0.25
LVPCNNSLV	< -0.25
RGRTYYHAPIRTPGTKERVL	< -0.25
LYVWYRFGLWVCNLVCTLSR	< -0.25
EFLLMF	< -0.25
GWKEAHAPGIEFCKRKRVPA	< -0.25
SASGPVVRRHVGREL	< -0.25
AGAHR	< -0.25
ITFYGRI	< -0.25
DEAANSNVCGPSSGGLHGSA	< -0.25
GLLESKFNSTLPSPFWSGVN	< -0.25
VVRFHSGRQYTQVL	< -0.25
RKGCISDVVDL	< -0.25
SCIAKASVKCAVQPRREIPQ	< -0.25
AGVEPCTVPELGKCSRVTRE	< -0.25
RKSMHRPTVRYCQGTALADL	< -0.25
GWQ	< -0.25
NLC	< -0.25
ARYHTKSRENVPAKCRPKKV	< -0.25

Substance	growth estimate
VLLTLTSGMIL	< -0.25
MLSILNGSNVSKQDTTSWVG	< -0.25
SVTLN	< -0.25
TAVL	< -0.25
YNGQFI	< -0.25
RHVCRFE	< -0.25
RSKGIESHEVLAAGTEEGLL	< -0.25
GCYIRNAAAIGLTVVGRRLR	< -0.25
ANGSRYSVTVFSELRYIKPS	< -0.25
LRNFNLFFKGIGVNMACRCT	< -0.25
LTTDEIYPC	< -0.25
VNG	0.126
SSLDRRVIANS	< -0.25
GGVHIFFRSLLATCPR	-0.245
LRPDTARRMGTGRVTPELAG	< -0.25
TIRLS	< -0.25
QPRV	< -0.25
VPRRSPRLDCMLVDERDLGC	< -0.25
QSHDALSDAVCASI	< -0.25
IGGSVGRRAIDVFAK	< -0.25
INVNAVVWSFGRVPRFLQCQ	< -0.25
TYFSGVKVVSLGLLAAPWAT	< -0.25
RYTTVIKPWDSNQ	< -0.25
CSRLQRRLRYMRVCKSWVAL	< -0.25
FYFQLMKAWFCW	< -0.25
QPPLRWGG	< -0.25

Part of the list above, reformatted:

| Substance | growth estimate |
| --- | --- |
| QPRV | < -0.25 |
| VPRRSPRLDCMLVDERDLGC | < -0.25 |
| QSHDALSDAVCASI | < -0.25 |
| IGGSVGRRAIDVFAK | < -0.25 |

Remaining list, next part

Substance	growth estimate
RWHAD	< -0.25
FLSV	< -0.25
VVRLASFR	< -0.25
GCKGSGAPTAASIVGVSNGK	< -0.25
FDESILRLNS	-0.209
KSNRGLQGRTPW	< -0.25
SLQGPGIRT	< -0.25
SCTLRAPSSKNRWQELHRRH	< -0.25
SRRSRAMKTGASVERW	< -0.25
EARLGPSITPWVRLRSARVP	< -0.25
RRAIASGGGRITNVWRVLSS	< -0.25
QNGGVGKPIVVISSMPASIF	< -0.25
PVPWHW	< -0.25
SSIDSGPHPSVDGAATTHMP	< -0.25
STAFFSGTTCP	< -0.25
TGVGPGFRWGSIVCCGPIVT	< -0.25
DSVGPTVRVCNRSLRAWSWI	< -0.25
VQGSAAGGASASRSLY	< -0.25
SSDQHLHNPIKTDGPRPLNA	< -0.25
FVHAAGAMVERDVESSRGPR	< -0.25
LERLCFATFLEVHHIIVSTM	< -0.25
LVILKKAGRIRRSFGNYACA	< -0.25
SSLYRGPFAASWLVAPTSPS	< -0.25
GIQIHAFDAGQCN	< -0.25
GVEEINGNIKTVNRLRTNNA	< -0.25
WSLEDFCLSLVFKSC	< -0.25

Substance	growth estimate
DSQLDYWLKFKLRRSRRSQA	-0.24
TPLYVVLQL	< -0.25
ITYMTQGISIPSVVAYISSG	< -0.25
TYIPCSTPLPVSLVIDGLTV	< -0.25
SVPLWPAHT	< -0.25
WLVACRELTPAAFGQIAHAP	< -0.25
LIQIAAWAVPLGSRSFVSTN	< -0.25
RRSIGE	< -0.25
WARGGGGL	< -0.25
SCLEPGLLMGTLVRHRGTGY	< -0.25
GFADLQYPAYCA	< -0.25
GFMQVPEAGGTQT	< -0.25
GRRLN	< -0.25
AAGIQPAVKCLRPCYASLRP	< -0.25
SPSPPMIRHMFCKC	< -0.25
SLRPYWLR	< -0.25
THKSSR	< -0.25
DFARPTEVIQLLSRWLTGHG	< -0.25
TGGNFGRKPDGLSPRSNDIP	-0.245
CVLNYLLGGLAFSSSV	-0.0485
SCRGRRGFNRNTG	< -0.25
PRAK	< -0.25
RPKRLYHLTG	< -0.25
SSPP	< -0.25
SGRPFGKRCALPDYSGQVIG	< -0.25
LRRDAPLIAARGKRVLYR	< -0.25

Random excerpt: 2 records from the list.
Substance	growth estimate
SVPLWPAHT	< -0.25
SGRPFGKRCALPDYSGQVIG	< -0.25

Part of the list above, bar-delimited.
Substance | growth estimate
LGSRDRLAQRVGVIVIPRND | < -0.25
PSETNDRYYISN | < -0.25
IHFVRRHQGHLRRGHVSFII | -0.23
RVGAS | < -0.25
WVVSLSTPA | < -0.25
IFSS | < -0.25

Remaining list, next part.

Substance	growth estimate
ATPYCSATHRYDSTSQDSHS	< -0.25
DHFCSLTLQAIETTGSVSEH	< -0.25
SITVRVVV	-0.239
CLLLQASCQQELLHRTPSSD	< -0.25
AWTSSGTGASSDSHSKKSRE	< -0.25
NPWGLHAWGPFHLQRVQCDL	< -0.25
ILCRSVPAHPRR	< -0.25
SRFVQPSPSDPGSMSALIPV	< -0.25
LDDRSTFVRRSDVTLFIIAT	< -0.25
YSYVRDLPPQLSTGWETRKY	< -0.25
RGSRKVFPLKEEVPLWVQKL	< -0.25
FMSVRLDGAHRLFSFCPFWL	< -0.25
DSMCRWTV	< -0.25
MWYSLWDLGLLQ	-0.246
TAASS	< -0.25
GISNAQVKWS	< -0.25
SWGETITEAVGMGRGHGDRC	< -0.25
TANAEPLVRESLSIVPSNVA	< -0.25
SYKDMLLGFKENAHSMLHCK	< -0.25
STFQFGLTDTCYHLMTTSKR	-0.248
HPGYRKRRAVQQQFARV	< -0.25
ESERTSESCS	< -0.25
EWVRRWPRIISLRGA	< -0.25
AVA	< -0.25
GFSWEAQLGR	< -0.25
HPLTHAFFR	< -0.25

Substance	growth estimate
LSADSAERVVTLT	< -0.25
PNTPTFVYGVVARRAPKPGI	< -0.25
CIRRDMRCHTSKTARRSRGD	< -0.25
TKSA	< -0.25
ARSP	< -0.25
EKIQFLRFESRLVGTHYGML	< -0.25
AGTRNGPGRQVDMQGCR	< -0.25
GVDIKRS	< -0.25
LLVRECRRNNLGTRTRACSY	< -0.25
SHLSSTRIVDGHLVHYR	< -0.25
REFADKRCAV	< -0.25
ISRLTA	< -0.25
PESLLTLDFNGHGPQCPIAN	< -0.25
LALTETWGAPRTWQGCARSV	-0.245
GGVHLEI	< -0.25
SCNALHLWVSRTGAWFANSR	< -0.25
NQNTSEVCVAATTHPVGIYP	< -0.25
ITQ	< -0.25
ENLVSGLMPRACEKSIESFR	< -0.25
GCPVNFEYYGLL	-0.197
NAKHFSRRLDTIWASRVLWP	< -0.25
RGHRIPAEVRRLDNPHFRTQ	< -0.25
SHNTHRQILS	< -0.25
RRSFRGVGGNTPTKWLFGAE	< -0.25
PLSYRAHVGGLASISPFKQV	< -0.25
GLGSCT	< -0.25

Substance	growth estimate
AGSK	< -0.25
CPGCKIAFHDFVLVI	< -0.25
WRWAISVDSRRHQTWRGYGR	< -0.25
RLRVCLSVFADSRNVFVRAR	< -0.25
GKLVASRGEAHLKGGLTWTT	< -0.25
HRATV	< -0.25
HALT	< -0.25
FLNLIKGLRPLMGAHTASTT	< -0.25
SDRMAGFRQVWSRHLVLSGV	< -0.25
FNNEVKRHRGSATVERLKPP	< -0.25
TADMISQRIRRIAEV	< -0.25
VVSLMGHTKQLDYSSNKLPA	< -0.25
PSVWPRLGQGGTVGIPTSSG	< -0.25
GRASLAVLTLGLYCFGRTEA	< -0.25
LSRSALWGTFSGS	< -0.25
REGQTCR	< -0.25
VVH	< -0.25
QLCCGIRKVVVMTANINALR	< -0.25
AIDQTSWGEVS	< -0.25
